Source: article PMC13155314
No constants are given. Whether binding was seen depends on the method and setting. In cells and extracts the contact can be indirect. Tags and fused reporters may be left off the sequences shown.

Chains of the proteins cited; added tags and fusions are not shown. Lines headed by an entry give the natural chain unless they say otherwise; changes in a name come on top.
UniProt Q9JHF5: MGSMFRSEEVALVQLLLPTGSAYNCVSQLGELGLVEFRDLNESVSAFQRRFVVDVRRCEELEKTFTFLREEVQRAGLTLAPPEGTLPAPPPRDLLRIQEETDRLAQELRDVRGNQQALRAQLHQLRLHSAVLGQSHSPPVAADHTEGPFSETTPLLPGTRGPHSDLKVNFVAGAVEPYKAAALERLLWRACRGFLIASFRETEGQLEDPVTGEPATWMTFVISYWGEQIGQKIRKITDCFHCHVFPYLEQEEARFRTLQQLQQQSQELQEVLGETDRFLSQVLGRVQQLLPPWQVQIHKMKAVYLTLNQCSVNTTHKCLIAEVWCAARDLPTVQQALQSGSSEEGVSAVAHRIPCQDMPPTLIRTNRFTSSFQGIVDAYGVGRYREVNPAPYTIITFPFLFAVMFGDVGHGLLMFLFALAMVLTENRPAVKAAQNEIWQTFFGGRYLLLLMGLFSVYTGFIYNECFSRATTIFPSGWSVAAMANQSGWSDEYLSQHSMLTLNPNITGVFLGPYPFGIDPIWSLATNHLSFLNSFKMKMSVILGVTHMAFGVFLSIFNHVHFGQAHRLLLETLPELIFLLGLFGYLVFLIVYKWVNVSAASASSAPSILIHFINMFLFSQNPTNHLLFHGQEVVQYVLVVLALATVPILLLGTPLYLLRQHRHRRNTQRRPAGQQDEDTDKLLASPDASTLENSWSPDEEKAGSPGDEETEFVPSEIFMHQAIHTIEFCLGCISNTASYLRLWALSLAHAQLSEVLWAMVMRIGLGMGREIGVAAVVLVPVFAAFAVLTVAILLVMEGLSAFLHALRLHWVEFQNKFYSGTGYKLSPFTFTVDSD

Target: T1, 3X-FLAG-RAB5c (mouse) (UniProt P35278)
T1 sequence: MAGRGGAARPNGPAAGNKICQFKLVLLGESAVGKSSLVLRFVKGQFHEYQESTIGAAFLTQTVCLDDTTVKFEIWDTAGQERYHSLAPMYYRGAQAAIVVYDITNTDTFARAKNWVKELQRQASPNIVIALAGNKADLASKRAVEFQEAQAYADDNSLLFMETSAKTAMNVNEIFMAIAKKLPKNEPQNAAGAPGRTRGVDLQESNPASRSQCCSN
Assay: co-IP; anti-FLAG M2 magnetic beads, 3X-FLAG-RAB5c as bait; RAW264.7 cells coexpressing ATP6V0a3-EGFP, IFN-γ (200 U/ml) 16 h; lysed in Pierce IP Lysis Buffer; 4°C, 50 min; immunoblot

binding: no binding
Substance: ATP6V0a3-EGFP (from UniProt Q9JHF5)
